Source: PubChem BioAssay AID1508600 (Functional Genomics Laboratory (NCATS/FGL), 2020)
The whole screen tested about 53,000 sequences, of which about 3,700 (7%) were called active.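 The calls were made as follows: active = gene knockdowns whose robust z-score for IL-1 alpha signal is at least 2 or at most -2, so actives lie on both sides; inactive = the rest.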 The list shows a part of the results.

Assay: Components of the Cytosolic LPS Sensing Pathway: Gene Identification via Genome-wide siRNA Screen;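 also: robust z of the log signal after scaling to non-targeting control siRNA wells of the plate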
Conditions: RAW264.7 macrophages, IL-1a HTRF, actives lie on both sides, screened at 100 nM (by protocol), cells primed 5 h with Pam3CSK4 first
Summary of the method: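 IL-1a HTRF of supernatants after 24 hour LipidA transfection of Pam3CSK4-primed (5 hours) RAW264.7 cells, 48h post-siRNA transfection (100 nM). Scores: percent of plate negative-control median, then log-based robust z-score.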

Sequence	z-score
CGUCGUGGUUGGUAUGUAATT against Sacs	inactive: -1.18
GGUGAAAUCGACAAUCAAGTT against Rpl10a	inactive: 0.0182
GGGCAACAAGACUUUGAAATT against Tmem63a	inactive: 0.45
GCUGGCCUAAGAGUCCCUUTT against Klra8	inactive: -0.891
GCAAAGCUUGAUAACAAUATT against Idh1	inactive: 0.509
GCCCAGAUUGUGCUAACAUTT against Prkacb	inactive: -0.466
GGAUCACUACCAUGAAAACTT against Bace1	inactive: -1.35
GCAGAUUUAUUCCUCACGATT against Itfg1	inactive: 0.562
GGAAUACAAACUGCUGUACTT against Urgcp	inactive: 0.138
GGAAAUAGAGGAAAGAGAATT against Rbm17	inactive: -0.235
UUUGUUGAUCUGUUCACCATT against Mbtps2	inactive: 0.208
CCUUAGAACUGAGAUAAGUTT against BC030500	inactive: 0.996
CCUUUAAGCUAAAUGAAGGTT against Scube2	inactive: -0.581
GGAAAUACUGGAUCAUCAATT against Cts3	inactive: 0.956
GCUUUGACUGGAAUGACGGTT against Pex7	active: -2.2
CGAAAGCUUCCGAAUCUUCTT against Rsph6a	inactive: -0.0807
GGAUAACAUAACUUUGGAUTT against Fam204a	inactive: -0.923
GGAGCUGUUUAUGUACUUUTT against Neil3	inactive: -1.55
GGCCAAAUCAUGGAUGCAGTT against Comt	inactive: -0.324
GGACCGACUUCGUCUCACUTT against Ccdc87	inactive: 0.603
GGGAAUUACUGUUUCUGUCTT against Uhrf1bp1l	inactive: 0.537
GCAGAUAACAACAGUUGAATT against B3gat2	inactive: 1.17

3 entries from above, set out differently.
Sequence,z-score
CGUCGUGGUUGGUAUGUAATT against Sacs,inactive: -1.18
GGUGAAAUCGACAAUCAAGTT against Rpl10a,inactive: 0.0182
GGGCAACAAGACUUUGAAATT against Tmem63a,inactive: 0.45

Next part:

Sequence	z-score
GCGGAUCAAUGUCUUGCCATT against Asl	inactive: -0.81
CCGUUGCCUGAUAAGUUCUTT against Klf3	inactive: 0.576
GCGACUGGGAGAGAUAAGATT against Eogt	inactive: -0.818
GCCACACAGUUUCAUCUCATT against Alg12	inactive: -1.56
GGCUGUCUUUGUUCCAGUATT against Tnfrsf10b	inactive: 0.218
GGAAUUUCUGAAUGACUUATT against Zwilch	inactive: 0.0436
GGCAGCAAAAAGAAAAUCUTT against Slc22a30	inactive: 0.52
GGAAGGCACGUGAAUGGUGTT against AI606181	inactive: 0.45
GGCAUUAUUAACAAGAUUGTT against Eif2b1	inactive: 0.462
GCUGUAUCACAAGAAGCCGTT against Ccdc97	inactive: 0.361
GGUUGAAAUAAGAACCAUATT against Efcab2	inactive: -0.424
CGUAUACUGUGAUUGAUAUTT against Lcn5	inactive: -0.647
GGUAGAGAGACUGUAAUUATT against Ppp2r1b	inactive: -0.598
GGCUGCUUAUUUCUGAAUCTT against Pcdha11	inactive: -0.227
CCUAGAGCCGUGUGCAUACTT against Plp2	inactive: 0.891
GCUGGACCUUCAUGUAAUATT against Pcsk1	inactive: -0.234
GGCCGAUCUCUAAACAUAGTT against Sugp2	inactive: -0.759
GGAAGAGGCAGAAGUCAUCTT against Bcl2l12	inactive: 0.0791
GGUGUUCUUGAGCUGUGAGTT against Igfbp7	active: -2.32
GUAUUGGAAGCUCAUUUGATT against Pigf	inactive: 0.266
GGAGAAGGGCCUGAAGUAUTT against Lsm5	inactive: -1.77
CCAAAUUAGCUUAUGUUCUTT against Sgo1	inactive: -0.109

Sequence	z-score
GGAGAAUCUGAAGGACACCTT against Cd151	inactive: -0.126
GGUCUUUGUGUCCACCUACTT against Gpr162	inactive: 0.669
GCAAUUAGUAACUGAGAAUTT against Dpp10	inactive: 0.0628
GGAUCAACGAGGUAAAGUCTT against Itga8	inactive: 0.101
GAUGACUUUAUCCUCUUGGTT against Olfr1396	inactive: -0.771
GGUGGUUGGAGUACUCAAGTT against Capza1	active: -2.53
GCAAGAUCUGUGUAAAUGGTT against Gpx4	inactive: 0.894
GGUGUAAUUGGGAAAAUUCTT against Inpp5f	inactive: -1.17
GGCUCUAAACAAAAUUCAGTT against Gtf2e2	inactive: 0.407
GGACAGGAUGGAUGGAAGUTT against Ing5	inactive: -0.697
GGUGGUUGUGCAAUAUAGUTT against Atxn1	inactive: 0.149
CCAAGUGUGAUCUCCAUCATT against Gm5124	inactive: -0.334
GGAAUUGGAUGCCAUCAUCTT against Tnnc2	inactive: 0.0937
GGCCAUUUCCGUUUUAGGATT against Olfr319	inactive: -1.69
GGUGCAAGUUCGAACCAAGTT against Cdca8	inactive: 0.255
GCCGGAAUCAGUGAAAGGCTT against Trafd1	inactive: 1.82
CCCAGGGUGUCAAUCUAAATT against Cby1	inactive: -0.381
GGUACUCAUCCCUUCCUGATT against Mc1r	inactive: -0.129
CCUACAGAGUACCCUGUCUTT against Gas2l2	active: -2.56
GCUGUAUUGUGCAAAUGGCTT against Prkci	inactive: -0.511
GGAACAUCUCUGAAUUAUGTT against Ndel1	inactive: 0.335
GGAGGUAUUUCAAAUUGCUTT against Appl1	inactive: 0.0259

Individual results from the entries so far:
In z-score, GGAGGUAUUUCAAAUUGCUTT against Appl1 is entered as inactive: 0.0259
In z-score, GGCUGCUUAUUUCUGAAUCTT against Pcdha11 is entered as inactive: -0.227
In z-score, GCUGGACCUUCAUGUAAUATT against Pcsk1 is entered as inactive: -0.234

The list goes on.

Sequence	z-score
CCUCUAUGAGUGUAAACCATT against Crim1	inactive: -0.927
GCUAUGCACUUUGUGGACCTT against Zpbp2	inactive: 0.138
GGAGGAUACCUUCUUCUACTT against Mta3	inactive: 0.354
GCUGUCAGUCAAUACAAAATT against Ccdc33	inactive: 1.04
GGGCUUCAACACUGAGAAGTT against Arl4d	inactive: -1.04
GGCUCAGAAUUGAUCCUAUTT against Atxn3	inactive: 1.51
GGCUUCAACCGGAGAUUUATT against Pde8b	inactive: 0.491
GCUUAUGCCAGUCUGUCAUTT against Hax1	inactive: -0.206
GGAAGCUUCGAAAGUUUAUTT against Cmtm2b	inactive: 0.755
GCUCAUCGAGCCUGUACACTT against Med26	inactive: -0.296
GGUCUACUGACUCAAAGUCTT against Mrps33	active: 2.2
CCGGCUAAAUCACCGUGCUTT against Clpb	inactive: -0.647
CCACGUUAUCAGCUAUUACTT against Exoc7	inactive: 0.468
GGACUUUAAGCUCGACUUCTT against Ggct	inactive: -0.84
GGAAUUAUUCAGCAAGACUTT against Cdrt4	inactive: -0.636
GCAAAGUCAAGAGAAGUAUTT against A430033K04Rik	inactive: 0.49
GGGACAACUUUGCACAGGATT against Gfap	inactive: 0.166
GCAAGGUGACUCGAAGAAATT against Spry1	inactive: -0.102
GGGCUGAAGAUAAUGCAGATT against Pcna	inactive: 0.167
GGUCCAAAAAAGGUUCAAATT against Btbd3	inactive: 0.164
GGAUGGCAUGUCCUUCCAATT against Elf3	active: 2.85
GCAAGUAGAAACCCUUAAUTT against Scara5	inactive: -0.0354

Sequence	z-score
GCUUUUCAUGGACACAUUCTT against Nsun4	inactive: 1.48
CCAGCAGUAAACUGGAAAUTT against Arhgap25	inactive: -1.53
GCGGUACCUUCACUUGCAUTT against Lrfn1	inactive: -0.509
GGGUUGUGCAAAUUGGGCUTT against Olfr570	inactive: 0.974
GGUGAACACAACCAAACCATT against Lima1	inactive: -0.51
GAGGGACUGUAAUGUUGACTT against Olfr560	inactive: 0.0877
GCCAUCAACCAAAACAUCCTT against Gm5941	inactive: 0.895
GCUUGUGCAAAGAACAUGUTT against Itgad	inactive: 0.766
GGAAUUCAAUGACGUGUACTT against Mapk14	inactive: 0.493
GGCUCAUUCGGACUAUAUGTT against Cadm1	inactive: -1.51
GCGGGAAAUCACGAAGAUATT against Wdr31	inactive: -1.18
CGAGUGAGUCACGUAUCAUTT against 4930544M13Rik	inactive: 0.583
GGAUUCUUUGGUCUAUUUCTT against Pudp	inactive: -0.308
GGUCACCACUCCAUAUUCUTT against Vsir	inactive: -0.561
GCUUCUACCCUUAAUGCCATT against Fastkd5	inactive: -1.35
GGUAGAAAACUAGCUAAUATT against Slc35e3	inactive: 0.991
GCUGGAAGUGAACAUCGAUTT against Gng8	inactive: 1.11
GGUGUUCAGGAGAUGAUGCTT against Cdt1	inactive: 0.0123
GGAAGACAUAGAAGAAAAGTT against Zdhhc12	inactive: -0.926
